Assay results: article PMC10345109
Results are given in words; binding and its absence hold for the method and conditions named. In cells and extracts the contact can be indirect. Some binding calls cover weakened binding; strength is not graded here.

Sequences of proteins named here, by UniProt entry; tags and fusion partners are left off. A change or cut given only in a name is not applied to a line headed by its entry. A line that says so, or that is headed by a name, gives the form on record, which may keep a tag or linker.
UniProt O96019: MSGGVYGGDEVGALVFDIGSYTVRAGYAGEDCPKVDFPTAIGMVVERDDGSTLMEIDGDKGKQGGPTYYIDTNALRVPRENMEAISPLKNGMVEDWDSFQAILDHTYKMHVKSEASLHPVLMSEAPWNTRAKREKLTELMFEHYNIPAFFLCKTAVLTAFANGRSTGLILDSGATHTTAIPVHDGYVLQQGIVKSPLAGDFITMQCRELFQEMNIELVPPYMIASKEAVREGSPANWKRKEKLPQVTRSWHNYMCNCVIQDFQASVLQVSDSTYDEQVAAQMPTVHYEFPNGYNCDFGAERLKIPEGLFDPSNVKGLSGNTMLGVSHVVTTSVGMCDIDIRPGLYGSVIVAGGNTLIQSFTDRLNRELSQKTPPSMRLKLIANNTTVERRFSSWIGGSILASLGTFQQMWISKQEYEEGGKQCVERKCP
ACTL6A ΔHR (hydrophobic region) mutant (Δ319–324) (O96019, form named): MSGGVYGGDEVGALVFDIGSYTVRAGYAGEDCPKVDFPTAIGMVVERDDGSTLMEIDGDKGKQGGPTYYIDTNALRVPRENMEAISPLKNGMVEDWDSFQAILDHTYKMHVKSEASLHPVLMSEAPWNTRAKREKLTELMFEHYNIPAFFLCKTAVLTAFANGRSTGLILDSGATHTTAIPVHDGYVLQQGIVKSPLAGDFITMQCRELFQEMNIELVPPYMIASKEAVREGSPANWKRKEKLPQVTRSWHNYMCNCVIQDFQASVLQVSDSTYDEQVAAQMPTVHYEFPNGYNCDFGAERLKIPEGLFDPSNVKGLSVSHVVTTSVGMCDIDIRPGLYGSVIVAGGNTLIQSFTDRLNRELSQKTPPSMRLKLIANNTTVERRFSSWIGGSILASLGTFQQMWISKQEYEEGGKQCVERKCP

T1: Nuclear factor (erythroid-derived 2)-like 2 (NRF2) (human (endogenous in SNU638)) (UniProt Q16236)
T1 sequence: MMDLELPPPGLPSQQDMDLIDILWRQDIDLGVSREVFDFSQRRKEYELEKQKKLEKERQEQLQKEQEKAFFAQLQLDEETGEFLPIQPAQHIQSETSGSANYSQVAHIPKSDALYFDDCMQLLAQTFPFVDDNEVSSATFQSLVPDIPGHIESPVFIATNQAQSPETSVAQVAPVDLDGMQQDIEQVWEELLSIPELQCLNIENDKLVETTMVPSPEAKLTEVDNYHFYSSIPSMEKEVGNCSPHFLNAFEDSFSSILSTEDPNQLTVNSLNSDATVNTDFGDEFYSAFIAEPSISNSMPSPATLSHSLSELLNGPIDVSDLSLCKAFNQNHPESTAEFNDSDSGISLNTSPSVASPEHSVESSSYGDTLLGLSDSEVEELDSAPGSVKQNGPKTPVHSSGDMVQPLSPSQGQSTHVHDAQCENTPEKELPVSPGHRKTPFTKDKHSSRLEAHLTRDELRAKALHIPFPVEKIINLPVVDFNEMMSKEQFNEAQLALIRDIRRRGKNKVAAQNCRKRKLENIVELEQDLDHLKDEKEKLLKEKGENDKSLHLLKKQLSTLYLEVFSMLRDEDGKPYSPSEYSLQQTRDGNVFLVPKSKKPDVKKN


How the values were obtained:
[1] = biological target: T1, Nuclear factor (erythroid-derived 2)-like 2 (NRF2) (human (endogenous in SNU638)); assay: co-IP; endogenous proteins in SNU638 lysate (0.1% Triton, 0.1% NP-40, 50 mM Tris-Cl pH 7.5, 150 mM NaCl); 1 mg protein with anti-NRF2 or anti-ACTL6A antibody at 4 °C overnight, Protein A/G beads; IgG as control
[2] = biological target: ACTL6A ΔHR (hydrophobic region) mutant (Δ319–324) (human) (UniProt O96019); assay: co-IP; lysate of SNU638 cells transfected with flag-tagged ACTL6A-WT, ACTL6A-ΔHR or pcDNA3.1 vector, incubated with M2 (flag) beads at 4 °C overnight; endogenous NRF2 detected by blot

Row | binding [1] | binding [2] | Molecule
1 | binds |  | Actin-like protein 6A (ACTL6A) (from UniProt O96019 1-429)
2 |  | no binding | Nuclear factor (erythroid-derived 2)-like 2 (NRF2) (protein, UniProt Q16236 1-605) MMDLELPPPGLPSQQDMDLIDILWRQDIDLGVSREVFDFSQRRKEYELEKQKKLEKERQEQLQKEQEKAFFAQLQLDEETGEFLPIQPAQHIQSETSGSANYSQVAHIPKSDALYFDDCMQLLAQTFPFVDDNEVSSATFQSLVPDIPGHIESPVFIATNQAQSPETSVAQVAPVDLDGMQQDIEQVWEELLSIPELQCLNIENDKLVETTMVPSPEAKLTEVDNYHFYSSIPSMEKEVGNCSPHFLNAFEDSFSSILSTEDPNQLTVNSLNSDATVNTDFGDEFYSAFIAEPSISNSMPSPATLSHSLSELLNGPIDVSDLSLCKAFNQNHPESTAEFNDSDSGISLNTSPSVASPEHSVESSSYGDTLLGLSDSEVEELDSAPGSVKQNGPKTPVHSSGDMVQPLSPSQGQSTHVHDAQCENTPEKELPVSPGHRKTPFTKDKHSSRLEAHLTRDELRAKALHIPFPVEKIINLPVVDFNEMMSKEQFNEAQLALIRDIRRRGKNKVAAQNCRKRKLENIVELEQDLDHLKDEKEKLLKEKGENDKSLHLLKKQLSTLYLEVFSMLRDEDGKPYSPSEYSLQQTRDGNVFLVPKSKKPDVKKN
